This is an account of results in paper PMC3554521.

By UniProt entry, the sequences of proteins in these tests, tags left out. Where a name states a change or a piece, a line headed by the entry shows the natural chain unless it says otherwise.
UniProt P10629: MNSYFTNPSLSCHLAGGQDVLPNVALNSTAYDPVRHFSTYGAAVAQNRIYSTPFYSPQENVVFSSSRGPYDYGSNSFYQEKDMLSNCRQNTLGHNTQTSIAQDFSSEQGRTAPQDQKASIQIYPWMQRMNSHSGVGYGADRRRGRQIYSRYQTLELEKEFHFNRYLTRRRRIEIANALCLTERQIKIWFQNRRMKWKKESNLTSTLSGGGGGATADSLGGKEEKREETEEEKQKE

No constants are given. Whether binding was seen depends on the method and setting.

The target of the experiment is T1, Pbx3 (UniProt O35317).
T1 sequence: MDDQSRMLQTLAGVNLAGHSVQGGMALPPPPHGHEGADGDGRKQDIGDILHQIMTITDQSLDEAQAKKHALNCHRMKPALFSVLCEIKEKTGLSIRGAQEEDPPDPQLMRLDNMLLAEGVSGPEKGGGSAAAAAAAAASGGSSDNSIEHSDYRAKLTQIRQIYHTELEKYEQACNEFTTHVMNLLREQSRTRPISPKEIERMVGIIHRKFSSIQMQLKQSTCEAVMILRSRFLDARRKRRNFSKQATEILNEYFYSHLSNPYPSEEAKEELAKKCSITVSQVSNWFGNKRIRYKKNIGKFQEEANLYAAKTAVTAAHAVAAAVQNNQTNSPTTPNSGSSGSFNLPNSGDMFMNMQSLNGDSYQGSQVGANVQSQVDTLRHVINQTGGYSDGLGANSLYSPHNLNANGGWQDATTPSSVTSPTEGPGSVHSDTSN
In words: native gel or EMSA; gel mobility shift: recombinant Hoxc6 derivatives and Pbx3 together on IRDye-800 labelled DNA probes (Foxp1/hs1149 site, Fkh250con*); cooperative binding on DNA; 50 mM Tris-HCl pH 7.5, 250 mM NaCl, 5 mM MgCl2, 20% glycerol, 2.5 mM DTT, 2.5 mM EDTA, poly dIdC, 0.1% BSA, 20 min at room temperature; 0.5-2 pmol protein per reaction; both purified. A general note: Mobility shift assays separate free from complexed probe on a gel.

Consider “Hoxc6NΔ91+IM (from UniProt P10629) (domain or fragment)”, for which the binding entry is “no binding”.
